Measured values published in the supplement of paper PMC10849652.
The list shows a part of the results.

Chains of the proteins cited; added tags and fusions are not shown. Lines headed by an entry give the natural chain unless they say otherwise; changes in a name come on top.
UniProt P14854, whole entry, looked up: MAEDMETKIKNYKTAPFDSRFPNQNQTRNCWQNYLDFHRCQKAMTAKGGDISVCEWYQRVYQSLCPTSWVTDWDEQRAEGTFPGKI
UniProt Q8NI60: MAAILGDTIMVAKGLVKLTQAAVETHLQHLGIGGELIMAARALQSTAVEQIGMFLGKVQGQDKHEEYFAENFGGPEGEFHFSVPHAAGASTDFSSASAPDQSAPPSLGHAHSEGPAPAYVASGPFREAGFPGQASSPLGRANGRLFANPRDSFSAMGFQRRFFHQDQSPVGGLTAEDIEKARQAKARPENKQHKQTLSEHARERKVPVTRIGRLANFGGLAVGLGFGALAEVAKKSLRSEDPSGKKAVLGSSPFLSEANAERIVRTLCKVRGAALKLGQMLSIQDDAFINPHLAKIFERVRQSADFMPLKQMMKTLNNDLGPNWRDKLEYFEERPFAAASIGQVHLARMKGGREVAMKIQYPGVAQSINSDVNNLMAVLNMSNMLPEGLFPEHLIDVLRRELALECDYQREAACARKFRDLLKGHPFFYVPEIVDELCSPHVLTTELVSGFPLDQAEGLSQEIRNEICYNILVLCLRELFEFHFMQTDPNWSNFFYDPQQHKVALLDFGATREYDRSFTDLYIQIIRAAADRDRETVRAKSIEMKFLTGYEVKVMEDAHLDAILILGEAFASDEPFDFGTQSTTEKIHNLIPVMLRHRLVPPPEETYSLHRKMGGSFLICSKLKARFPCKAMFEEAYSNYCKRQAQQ
UniProt Q5JTJ3: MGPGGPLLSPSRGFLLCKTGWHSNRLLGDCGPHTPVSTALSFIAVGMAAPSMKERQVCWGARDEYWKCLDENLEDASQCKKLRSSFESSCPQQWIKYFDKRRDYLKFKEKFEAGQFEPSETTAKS
UniProt P53621: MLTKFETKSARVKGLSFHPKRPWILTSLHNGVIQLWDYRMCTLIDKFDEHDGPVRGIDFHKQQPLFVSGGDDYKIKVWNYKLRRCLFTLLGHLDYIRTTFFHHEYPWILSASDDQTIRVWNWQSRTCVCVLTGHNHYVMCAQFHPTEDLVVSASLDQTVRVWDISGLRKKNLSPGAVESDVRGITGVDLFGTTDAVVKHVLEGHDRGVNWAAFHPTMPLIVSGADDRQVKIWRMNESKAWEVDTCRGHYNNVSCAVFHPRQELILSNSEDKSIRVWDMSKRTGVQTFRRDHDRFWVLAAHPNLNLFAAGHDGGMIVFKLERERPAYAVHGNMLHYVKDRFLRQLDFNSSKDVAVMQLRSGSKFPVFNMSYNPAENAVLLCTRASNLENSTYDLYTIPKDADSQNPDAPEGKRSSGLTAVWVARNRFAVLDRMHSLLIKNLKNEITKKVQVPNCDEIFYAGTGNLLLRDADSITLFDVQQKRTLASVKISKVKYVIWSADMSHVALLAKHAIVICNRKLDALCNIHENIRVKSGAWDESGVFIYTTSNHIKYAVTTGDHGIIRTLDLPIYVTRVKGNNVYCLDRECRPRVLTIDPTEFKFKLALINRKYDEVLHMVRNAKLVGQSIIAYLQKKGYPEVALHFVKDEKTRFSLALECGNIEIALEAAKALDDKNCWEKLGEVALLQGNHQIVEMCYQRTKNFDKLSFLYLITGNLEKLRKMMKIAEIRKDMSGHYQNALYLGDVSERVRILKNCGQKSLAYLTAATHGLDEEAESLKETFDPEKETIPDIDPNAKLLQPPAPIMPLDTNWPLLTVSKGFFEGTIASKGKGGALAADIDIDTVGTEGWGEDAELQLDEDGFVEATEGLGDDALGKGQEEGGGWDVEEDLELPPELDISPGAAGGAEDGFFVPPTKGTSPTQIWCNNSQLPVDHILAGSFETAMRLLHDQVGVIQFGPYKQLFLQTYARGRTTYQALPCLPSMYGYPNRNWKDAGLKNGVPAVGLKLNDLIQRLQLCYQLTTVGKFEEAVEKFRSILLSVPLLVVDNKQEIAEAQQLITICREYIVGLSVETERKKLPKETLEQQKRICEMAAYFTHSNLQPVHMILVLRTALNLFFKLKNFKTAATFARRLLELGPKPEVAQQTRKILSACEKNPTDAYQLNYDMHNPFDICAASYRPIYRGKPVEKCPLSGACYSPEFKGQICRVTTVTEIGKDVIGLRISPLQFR
UniProt Q10570: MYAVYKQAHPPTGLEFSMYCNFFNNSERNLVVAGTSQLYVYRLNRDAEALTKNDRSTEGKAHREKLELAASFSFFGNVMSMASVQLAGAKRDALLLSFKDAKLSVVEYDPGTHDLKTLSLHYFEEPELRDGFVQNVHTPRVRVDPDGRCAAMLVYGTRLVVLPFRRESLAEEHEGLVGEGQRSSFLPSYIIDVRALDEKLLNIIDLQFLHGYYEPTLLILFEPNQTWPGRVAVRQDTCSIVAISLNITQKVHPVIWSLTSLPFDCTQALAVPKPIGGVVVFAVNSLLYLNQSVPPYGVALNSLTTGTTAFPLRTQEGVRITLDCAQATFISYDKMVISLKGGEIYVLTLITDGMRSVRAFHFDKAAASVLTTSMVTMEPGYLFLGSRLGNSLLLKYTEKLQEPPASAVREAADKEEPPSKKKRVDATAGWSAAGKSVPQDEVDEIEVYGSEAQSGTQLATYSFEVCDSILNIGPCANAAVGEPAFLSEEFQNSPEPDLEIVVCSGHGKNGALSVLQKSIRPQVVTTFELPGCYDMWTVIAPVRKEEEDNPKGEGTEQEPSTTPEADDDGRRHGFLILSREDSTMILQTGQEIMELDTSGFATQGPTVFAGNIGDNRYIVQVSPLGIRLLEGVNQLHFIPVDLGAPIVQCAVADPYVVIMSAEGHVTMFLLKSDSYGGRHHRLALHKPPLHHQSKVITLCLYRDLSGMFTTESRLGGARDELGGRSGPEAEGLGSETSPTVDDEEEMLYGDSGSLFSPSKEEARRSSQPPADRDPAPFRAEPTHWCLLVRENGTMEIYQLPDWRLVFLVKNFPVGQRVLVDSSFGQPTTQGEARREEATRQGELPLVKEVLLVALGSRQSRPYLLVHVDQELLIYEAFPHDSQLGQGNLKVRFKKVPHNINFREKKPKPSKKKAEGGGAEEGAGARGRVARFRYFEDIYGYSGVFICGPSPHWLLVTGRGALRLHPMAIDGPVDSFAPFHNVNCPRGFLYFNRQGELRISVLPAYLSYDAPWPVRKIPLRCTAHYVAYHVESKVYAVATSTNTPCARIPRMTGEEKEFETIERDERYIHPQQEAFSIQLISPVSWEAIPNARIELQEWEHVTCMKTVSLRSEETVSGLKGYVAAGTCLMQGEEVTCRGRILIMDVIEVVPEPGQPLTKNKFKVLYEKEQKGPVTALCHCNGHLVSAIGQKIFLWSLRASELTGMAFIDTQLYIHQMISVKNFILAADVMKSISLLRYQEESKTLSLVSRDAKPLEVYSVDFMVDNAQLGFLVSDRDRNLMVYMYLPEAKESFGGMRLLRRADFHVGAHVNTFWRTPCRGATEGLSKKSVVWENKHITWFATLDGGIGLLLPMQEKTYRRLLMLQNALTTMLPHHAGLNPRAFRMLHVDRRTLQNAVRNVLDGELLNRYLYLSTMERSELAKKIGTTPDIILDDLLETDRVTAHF
UniProt O95639, whole entry, looked up: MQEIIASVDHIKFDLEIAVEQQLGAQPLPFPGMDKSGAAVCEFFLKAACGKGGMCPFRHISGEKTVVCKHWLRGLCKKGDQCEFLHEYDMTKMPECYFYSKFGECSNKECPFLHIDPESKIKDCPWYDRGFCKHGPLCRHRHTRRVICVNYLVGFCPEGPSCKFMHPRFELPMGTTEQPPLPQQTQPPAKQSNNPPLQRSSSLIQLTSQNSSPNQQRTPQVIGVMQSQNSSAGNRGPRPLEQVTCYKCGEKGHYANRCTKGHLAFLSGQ
UniProt Q9Y6N1: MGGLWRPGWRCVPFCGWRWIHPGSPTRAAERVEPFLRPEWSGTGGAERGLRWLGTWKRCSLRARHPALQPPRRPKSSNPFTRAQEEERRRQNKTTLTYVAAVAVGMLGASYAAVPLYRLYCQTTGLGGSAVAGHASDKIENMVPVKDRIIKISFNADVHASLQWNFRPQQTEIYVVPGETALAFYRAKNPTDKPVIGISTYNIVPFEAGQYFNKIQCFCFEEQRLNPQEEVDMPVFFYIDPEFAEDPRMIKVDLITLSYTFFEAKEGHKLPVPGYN
UniProt Q8N129: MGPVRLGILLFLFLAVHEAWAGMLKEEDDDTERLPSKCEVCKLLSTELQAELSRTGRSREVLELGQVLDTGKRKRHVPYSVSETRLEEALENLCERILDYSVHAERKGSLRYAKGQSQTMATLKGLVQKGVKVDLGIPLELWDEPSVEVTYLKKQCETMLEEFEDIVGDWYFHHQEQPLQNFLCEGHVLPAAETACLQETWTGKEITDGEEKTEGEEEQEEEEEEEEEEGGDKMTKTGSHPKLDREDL

Assays:
Assay in all cases: log2 fold change, soluble protein after heating vs DMSO (PISA); higher = thermal stabilisation; K562 lysate, 10 uM; active = over 0.2 and 3.5 SD of the protein, either way, in both replicates (recomputed)
[1] = compound: CCCS(=O)(=O)Nc1ccc(F)c(C(=O)c2c[nH]c3ncc(-c4ccc(Cl)cc4)cc23)c1F [vemurafenib]
Summary of the method: (§1)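 Pellets of K562 cells were dounce-homogenised in PBS pH 7.4 with 1 mM MgCl2, and the crude extract was held at 1 mg/mL protein for a 30 min treatment with 10 μM compound. Aliquots were heated for 3 min over 48°C-58°C and pooled before NP-40 was added to 0.5% at 4°C. The supernatant from 21,000xg for 90 min was quantified by TMTpro 16plex LC-MS/MS with channel sums equalised. Values are reported from duplicates as log-two fold change in thermal stability relative to solvent controls.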

[2] = compound: CCCS(=O)(=O)Nc1ccc(F)c(C(=O)c2c[nH]c3ncc(Cl)cc23)c1F
Summary of the method: as §1

[3] = compound: CCN(CCCOc1ccc2c(Nc3cc(CC(=O)Nc4cccc(F)c4)[nH]n3)ncnc2c1)CCOP(=O)(O)O [barasertib]
Summary of the method: as §1

[4] = compound: CC[C@@H]1C(=O)N(C)c2cnc(Nc3ccc(C(=O)NC4CCN(C)CC4)cc3OC)nc2N1C1CCCC1
Summary of the method: as §1

[5] = compound: CC[C@@H]1C(=O)N(C)c2cnc(Nc3ccc(C(=O)N[C@H]4CC[C@H](N5CCN(CC6CC6)CC5)CC4)cc3OC)nc2N1C(C)C [volasertib]
Summary of the method: as §1

[6] = compound: CCn1c(C(=O)N(C2CC2)C2CC2)cc2c3c(ncn3C)c(Nc3cc(C)n(C)n3)nc21
Summary of the method: as §1

[7] = compound: CCn1cc(-c2ccnc3[nH]c(-c4cccc(CN(C)C)c4)cc23)c(-c2ccc(NC(=O)N(C)C)cc2)n1
Summary of the method: as §1

[8] = compound: CN1CCC(CNc2ccc3ncc(-c4cccc(OC(F)(F)F)c4)n3n2)CC1
Summary of the method: as §1

[9] = compound: CN1CCN(CCOc2cc(OC3CCOCC3)c3c(Nc4c(Cl)ccc5c4OCO5)ncnc3c2)CC1 [saracatinib]
Summary of the method: as §1

[10] = compound: CN1CCN(c2nc(C3=C(c4c[nH]c5ccccc45)C(=O)NC3=O)c3ccccc3n2)CC1 [sotrastaurin]
Summary of the method: as §1

[11] = compound: CN1CC[C@H](c2c(O)cc(O)c3c(=O)cc(-c4ccccc4Cl)oc23)[C@H](O)C1 [alvocidib]
Summary of the method: as §1

[12] = compound: CN1CCc2c(c3ccccc3n2Cc2ccc(C(=O)NO)cc2)C1 [Tubastatin A]
Summary of the method: as §1

[13] = compound: CNC(=O)C1=CC=CC=C1NC2=NC(=NC=C2Cl)NC3=C(C=C(C=C3)N4CCOCC4)OC
Summary of the method: as §1

[14] = compound: CNC(=O)c1ccc(Nc2ncc(C(F)(F)F)c(NCc3nccnc3N(C)S(C)(=O)=O)n2)cc1 [defactinib]
Summary of the method: as §1

[15] = compound: CNc1nc(-c2ccc3c(N)n[nH]c3c2)cc(N2C[C@@H](C(=O)NC3CCCCC3)CC[C@H]2C)n1
Summary of the method: as §1

[16] = compound: COC(=O)N[C@@H](C)CNc1nccc(-c2cn(C(C)C)nc2-c2cc(Cl)cc(NS(C)(=O)=O)c2F)n1 [encorafenib]
Summary of the method: as §1

[17] = compound: COC(=O)[C@H](CCSC)NC(=O)C1=C(C=C(C=C1)NC[C@H](CS)N)C2=CC=CC=C2
Summary of the method: as §1

[18] = compound: COc1cc(Nc2ncc3c(n2)-c2ccc(Cl)cc2C(c2c(F)cccc2OC)=NC3)ccc1C(=O)O [alisertib]
Summary of the method: as §1

[19] = compound: COc1cc2nc(-c3cc(F)ccc3O)nc(N[C@@H]3CNC[C@H]3C(C)(C)O)c2cc1OC
Summary of the method: as §1

[20] = compound: COc1cc2ncnc(Nc3ccc(F)c(Cl)c3)c2cc1OCCCN1CCOCC1 [gefitinib]
Summary of the method: as §1

COX6B1 (UniProt P14854) was tested, and the log2 fold change [1] was inactive: 0, the log2 fold change [2] was inactive: -0.022 and the log2 fold change [3] was inactive: 0.121. The log2 fold change [4] was inactive: -0.009, the log2 fold change [5] was inactive: 0.083 and the log2 fold change [6] was inactive: -0.029. The log2 fold change [7] was inactive: 0.079, the log2 fold change [8] was inactive: -0.094 and the log2 fold change [9] was inactive: -0.012. For the same target, the log2 fold change [10] was inactive: 0.029, the log2 fold change [11] was inactive: 0.115 and the log2 fold change [12] was inactive: 0.094. For the same target, the log2 fold change [13] was inactive: 0.084, the log2 fold change [14] was inactive: 0.223 and the log2 fold change [15] was inactive: 0.075. The log2 fold change [16] was inactive: -0.001, the log2 fold change [17] was inactive: 0.021 and the log2 fold change [18] was inactive: 0.021. For the same target, the log2 fold change [19] was inactive: -0.037 and the log2 fold change [20] was inactive: -0.071.
In the case of COQ8A (UniProt Q8NI60), the log2 fold change [1] is reported as inactive: 0.036, the log2 fold change [2] is reported as inactive: -0.009 and the log2 fold change [3] is reported as inactive: 0.134. For the same target, the log2 fold change [4] was inactive: 0.026, the log2 fold change [5] was inactive: -0.026 and the log2 fold change [6] was inactive: -0.029. The log2 fold change [7] was inactive: -0.214, the log2 fold change [8] was active: 0.573 and the log2 fold change [9] was active: 0.697. For the same target, the log2 fold change [10] was inactive: 0.016, the log2 fold change [11] was inactive: 0.051 and the log2 fold change [12] was inactive: -0.06. The log2 fold change [13] was inactive: 0.384, the log2 fold change [14] was inactive: 0 and the log2 fold change [15] was inactive: 0.079. The log2 fold change [16] was inactive: 0.145, the log2 fold change [17] was inactive: -0.009 and the log2 fold change [18] was inactive: -0.023. For the same target, the log2 fold change [19] was inactive: 0.009 and the log2 fold change [20] was inactive: 0.447.
COA6 isoform 2 (UniProt Q5JTJ3) was tested, and the log2 fold change [1] was inactive: 0, the log2 fold change [2] was inactive: 0.012 and the log2 fold change [3] was inactive: 0.041. The log2 fold change [4] was inactive: -0.113, the log2 fold change [5] was inactive: 0.002 and the log2 fold change [6] was inactive: 0.019. For the same target, the log2 fold change [7] was inactive: -0.05, the log2 fold change [8] was inactive: 0.016 and the log2 fold change [9] was inactive: 0.002. The log2 fold change [10] was inactive: 0.04, the log2 fold change [11] was inactive: 0.012 and the log2 fold change [12] was inactive: 0.086. The log2 fold change [13] was inactive: 0.014, the log2 fold change [14] was inactive: 0.041 and the log2 fold change [15] was inactive: 0.031. For the same target, the log2 fold change [16] was inactive: -0.113, the log2 fold change [17] was inactive: 0.026 and the log2 fold change [18] was inactive: -0.274. The log2 fold change [19] was inactive: 0.01 and the log2 fold change [20] was inactive: 0.271.
COPA isoform 2 (UniProt P53621) was tested, and the log2 fold change [1] was inactive: -0.008, the log2 fold change [2] was inactive: 0.004 and the log2 fold change [3] was inactive: -0.004. The log2 fold change [4] was inactive: 0.007, the log2 fold change [5] was inactive: 0 and the log2 fold change [6] was inactive: 0.01. For the same target, the log2 fold change [7] was inactive: -0.002, the log2 fold change [8] was inactive: 0.008 and the log2 fold change [9] was inactive: -0.025. For the same target, the log2 fold change [10] was inactive: 0, the log2 fold change [11] was inactive: 0.014 and the log2 fold change [12] was inactive: -0.011. The log2 fold change [13] was inactive: -0.007, the log2 fold change [14] was inactive: -0.011 and the log2 fold change [15] was inactive: 0.016. The log2 fold change [16] was inactive: 0.002, the log2 fold change [17] was inactive: 0.02 and the log2 fold change [18] was inactive: 0.008. The log2 fold change [19] was inactive: -0.002 and the log2 fold change [20] was inactive: -0.02.
CPSF1 (UniProt Q10570) was tested, and the log2 fold change [1] was inactive: 0.006, the log2 fold change [2] was inactive: 0.02 and the log2 fold change [3] was inactive: 0.007. The log2 fold change [4] was inactive: 0.023, the log2 fold change [5] was inactive: -0.025 and the log2 fold change [6] was inactive: 0.003. For the same target, the log2 fold change [7] was inactive: -0.075, the log2 fold change [8] was inactive: 0.033 and the log2 fold change [9] was inactive: 0.041. The log2 fold change [10] was inactive: 0.004, the log2 fold change [11] was inactive: -0.015 and the log2 fold change [12] was inactive: -0.066. The log2 fold change [13] was inactive: 0, the log2 fold change [14] was inactive: -0.012 and the log2 fold change [15] was inactive: -0.016. For the same target, the log2 fold change [16] was inactive: 0.041, the log2 fold change [17] was inactive: 0.043 and the log2 fold change [18] was inactive: -0.003. The log2 fold change [19] was inactive: -0.026 and the log2 fold change [20] was inactive: -0.013.
For CPSF4 (UniProt O95639), the log2 fold change [1] was inactive: -0.02, the log2 fold change [2] was inactive: -0.017 and the log2 fold change [3] was inactive: 0.064. For the same target, the log2 fold change [4] was inactive: 0.014, the log2 fold change [5] was inactive: 0.019 and the log2 fold change [6] was inactive: -0.001. For the same target, the log2 fold change [7] was inactive: -0.059, the log2 fold change [8] was inactive: 0 and the log2 fold change [9] was inactive: 0.03. The log2 fold change [10] was inactive: -0.006, the log2 fold change [11] was inactive: -0.029 and the log2 fold change [12] was inactive: -0.102. The log2 fold change [13] was inactive: -0.017, the log2 fold change [14] was inactive: -0.075 and the log2 fold change [15] was inactive: 0.033. The log2 fold change [16] was inactive: 0.16, the log2 fold change [17] was inactive: 0.034 and the log2 fold change [18] was inactive: 0.065. The log2 fold change [19] was inactive: -0.005 and the log2 fold change [20] was inactive: -0.055.
With COX11 (UniProt Q9Y6N1) the log2 fold change [1] was inactive: 0.053, the log2 fold change [2] was inactive: -0.006 and the log2 fold change [3] was inactive: -0.051. For the same target, the log2 fold change [4] was inactive: 0.027, the log2 fold change [5] was inactive: 0.03 and the log2 fold change [6] was inactive: -0.043. For the same target, the log2 fold change [7] was inactive: 0.172, the log2 fold change [8] was inactive: 0.042 and the log2 fold change [9] was inactive: 0.014. The log2 fold change [10] was inactive: -0.03, the log2 fold change [11] was inactive: 0.105 and the log2 fold change [12] was inactive: 0.024. The log2 fold change [13] was inactive: -0.018, the log2 fold change [14] was inactive: -0.01 and the log2 fold change [15] was inactive: 0.02. For the same target, the log2 fold change [16] was inactive: -0.062, the log2 fold change [17] was inactive: 0.011 and the log2 fold change [18] was inactive: 0.066. The log2 fold change [19] was inactive: 0.016 and the log2 fold change [20] was inactive: -0.051.
In the case of CNPY4 (UniProt Q8N129), the log2 fold change [1] is reported as inactive: 0.018, the log2 fold change [2] is reported as inactive: -0.023 and the log2 fold change [3] is reported as inactive: -0.011. The log2 fold change [4] was inactive: 0.109, the log2 fold change [5] was inactive: 0.023 and the log2 fold change [6] was inactive: -0.059. The log2 fold change [7] was inactive: -0.081, the log2 fold change [8] was inactive: 0.017 and the log2 fold change [9] was inactive: 0.071. The log2 fold change [10] was inactive: 0.054, the log2 fold change [11] was inactive: -0.1 and the log2 fold change [12] was inactive: 0.067. The log2 fold change [13] was inactive: -0.096, the log2 fold change [14] was inactive: -0.045 and the log2 fold change [15] was inactive: -0.043. For the same target, the log2 fold change [16] was inactive: -0.075, the log2 fold change [17] was inactive: 0.072 and the log2 fold change [18] was inactive: 0.039. The log2 fold change [19] was inactive: 0.003 and the log2 fold change [20] was inactive: -0.092.
